Reference: patent US20250074896A1, “ARYLTETRAHYDROPYRIDAZINE DERIVATIVE OR SALT THEREOF AND INSECTICIDAL AGENT CONTAINING THE COMPOUND AND METHOD FOR USING SAME” (NIHON NOHYAKU CO., LTD., priority 2021, published 2025)
Some of these results come from one statement about several compounds together.

Columns and labels:
Format in all cases: in vivo
[1] = tested on: Small Brown Planthopper (Laodelphax striatellus); test: Insecticidal test on small brown planthopper (dipped rice seedlings, 3rd-instar larvae); details: rice seedlings dipped 30 seconds, 8 days after inoculation
[2] = tested on: Western Flower Thrips (Frankliniella occidentalis); test: Insecticidal test on western flower thrips (kidney bean leaf pieces, hatched larvae); details: 4 days after the treatment
[3] = tested on: Diamondback moth (Plutella xylostella); test: Insecticidal test on diamondback moth (dip treatment of Chinese cabbage seedlings with laid eggs); details: dip about 30 seconds, 6 days after treatment, 25° C.

COCCOC(=O)N1C(=O)C(C(=O)Nc2ccc(C)cc2)=C(O)CN1c1ccc(C#N)cc1 [3-355]
A (the mortality rate is 100%): insecticidal efficacy (corrected mortality rate) against small brown planthopper ([1]; 50 ppm) | insecticidal efficacy (corrected mortality rate) against small brown planthopper ([1]; 500 ppm) | insecticidal efficacy (corrected mortality rate) against western flower thrips ([2]; 50 ppm) | insecticidal efficacy (corrected mortality rate) against western flower thrips ([2]; 500 ppm) | insecticidal efficacy (corrected mortality rate) against diamondback moth ([3]; 50 ppm) | insecticidal efficacy (corrected mortality rate) against diamondback moth ([3]; 500 ppm)

N#Cc1cnc(N2CC(O)=C(C(=O)Nc3ccc(F)cc3)C(=O)N2)cn1 [1-142]
A (the mortality rate is 100%): insecticidal efficacy (corrected mortality rate) against small brown planthopper ([1]; 50 ppm) | insecticidal efficacy (corrected mortality rate) against small brown planthopper ([1]; 500 ppm) | insecticidal efficacy (corrected mortality rate) against western flower thrips ([2]; 50 ppm) | insecticidal efficacy (corrected mortality rate) against western flower thrips ([2]; 500 ppm) | insecticidal efficacy (corrected mortality rate) against diamondback moth ([3]; 50 ppm) | insecticidal efficacy (corrected mortality rate) against diamondback moth ([3]; 500 ppm)

N#Cc1ccc(N2CC(O)=C(C(=O)Nc3ccc(F)cc3F)C(=O)N2)cc1 [1-242]
A (the mortality rate is 100%): insecticidal efficacy (corrected mortality rate) against small brown planthopper ([1]; 50 ppm) | insecticidal efficacy (corrected mortality rate) against small brown planthopper ([1]; 500 ppm) | insecticidal efficacy (corrected mortality rate) against western flower thrips ([2]; 50 ppm) | insecticidal efficacy (corrected mortality rate) against western flower thrips ([2]; 500 ppm) | insecticidal efficacy (corrected mortality rate) against diamondback moth ([3]; 50 ppm) | insecticidal efficacy (corrected mortality rate) against diamondback moth ([3]; 500 ppm)

COC1=C(C(=O)Nc2ccc(F)cc2)C(=O)NN(c2ccc(C(F)(F)F)nc2)C1 [5-1]
A (the mortality rate is 100%): insecticidal efficacy (corrected mortality rate) against small brown planthopper ([1]; 500 ppm) | insecticidal efficacy (corrected mortality rate) against western flower thrips ([2]; 50 ppm) | insecticidal efficacy (corrected mortality rate) against western flower thrips ([2]; 500 ppm) | insecticidal efficacy (corrected mortality rate) against diamondback moth ([3]; 50 ppm) | insecticidal efficacy (corrected mortality rate) against diamondback moth ([3]; 500 ppm)

Cn1ccc(NC(=O)C2=C(O)CN(c3ccc(Cl)cn3)NC2=O)n1 [1-296]
A (the mortality rate is 100%): insecticidal efficacy (corrected mortality rate) against small brown planthopper ([1]; 50 ppm) | insecticidal efficacy (corrected mortality rate) against small brown planthopper ([1]; 500 ppm) | insecticidal efficacy (corrected mortality rate) against western flower thrips ([2]; 50 ppm) | insecticidal efficacy (corrected mortality rate) against western flower thrips ([2]; 500 ppm) | insecticidal efficacy (corrected mortality rate) against diamondback moth ([3]; 50 ppm) | insecticidal efficacy (corrected mortality rate) against diamondback moth ([3]; 500 ppm)

COC(=O)N1C(=O)C(C(=O)Nc2cccc(Cl)n2)=C(O)CN1c1ccc(Br)nc1 [3-402]
A (the mortality rate is 100%): insecticidal efficacy (corrected mortality rate) against small brown planthopper ([1]; 50 ppm) | insecticidal efficacy (corrected mortality rate) against small brown planthopper ([1]; 500 ppm) | insecticidal efficacy (corrected mortality rate) against western flower thrips ([2]; 500 ppm) | insecticidal efficacy (corrected mortality rate) against diamondback moth ([3]; 500 ppm)

N#Cc1ncc(N2CC(O)=C(C(=O)Nc3ccc(Cl)nc3)C(=O)N2)cc1Cl [1-183]
A (the mortality rate is 100%): insecticidal efficacy (corrected mortality rate) against small brown planthopper ([1]; 50 ppm) | insecticidal efficacy (corrected mortality rate) against small brown planthopper ([1]; 500 ppm) | insecticidal efficacy (corrected mortality rate) against western flower thrips ([2]; 50 ppm) | insecticidal efficacy (corrected mortality rate) against western flower thrips ([2]; 500 ppm) | insecticidal efficacy (corrected mortality rate) against diamondback moth ([3]; 50 ppm) | insecticidal efficacy (corrected mortality rate) against diamondback moth ([3]; 500 ppm)

Cc1ccc(NC(=O)C2=C(O)CN(c3cnc(C#N)c(Cl)c3)NC2=O)c(F)c1 [1-222]
A (the mortality rate is 100%): insecticidal efficacy (corrected mortality rate) against small brown planthopper ([1]; 500 ppm) | insecticidal efficacy (corrected mortality rate) against western flower thrips ([2]; 50 ppm) | insecticidal efficacy (corrected mortality rate) against western flower thrips ([2]; 500 ppm) | insecticidal efficacy (corrected mortality rate) against diamondback moth ([3]; 50 ppm) | insecticidal efficacy (corrected mortality rate) against diamondback moth ([3]; 500 ppm)

CSc1cc(N2CC(O)=C(C(=O)Nc3ccc(F)c(F)c3)C(=O)N2)cnc1C#N [1-75]
A (the mortality rate is 100%): insecticidal efficacy (corrected mortality rate) against small brown planthopper ([1]; 50 ppm) | insecticidal efficacy (corrected mortality rate) against small brown planthopper ([1]; 500 ppm) | insecticidal efficacy (corrected mortality rate) against western flower thrips ([2]; 50 ppm) | insecticidal efficacy (corrected mortality rate) against western flower thrips ([2]; 500 ppm) | insecticidal efficacy (corrected mortality rate) against diamondback moth ([3]; 50 ppm) | insecticidal efficacy (corrected mortality rate) against diamondback moth ([3]; 500 ppm)

O=C1C(C(=S)Nc2ccc(F)cc2)=C(O)CN(c2ccc(C(F)(F)F)nc2)N1C(=O)C1CC1 [4-1]
A (the mortality rate is 100%): insecticidal efficacy (corrected mortality rate) against small brown planthopper ([1]; 50 ppm) | insecticidal efficacy (corrected mortality rate) against small brown planthopper ([1]; 500 ppm) | insecticidal efficacy (corrected mortality rate) against western flower thrips ([2]; 50 ppm) | insecticidal efficacy (corrected mortality rate) against western flower thrips ([2]; 500 ppm) | insecticidal efficacy (corrected mortality rate) against diamondback moth ([3]; 50 ppm) | insecticidal efficacy (corrected mortality rate) against diamondback moth ([3]; 500 ppm)

CC(C)(C)OC(=O)N1C(=O)C(C(=S)Nc2cccc(F)c2)=C(O)CN1c1ccc(C(F)(F)F)nc1 [4-30]
A (the mortality rate is 100%): insecticidal efficacy (corrected mortality rate) against small brown planthopper ([1]; 500 ppm) | insecticidal efficacy (corrected mortality rate) against western flower thrips ([2]; 500 ppm) | insecticidal efficacy (corrected mortality rate) against diamondback moth ([3]; 500 ppm)

CCNC(=O)N1C(=O)C(C(=O)Nc2ccc(F)cc2)=C(O)CN1c1ccc(C#N)nc1 [3-40]
A (the mortality rate is 100%): insecticidal efficacy (corrected mortality rate) against small brown planthopper ([1]; 50 ppm) | insecticidal efficacy (corrected mortality rate) against small brown planthopper ([1]; 500 ppm) | insecticidal efficacy (corrected mortality rate) against western flower thrips ([2]; 50 ppm) | insecticidal efficacy (corrected mortality rate) against western flower thrips ([2]; 500 ppm) | insecticidal efficacy (corrected mortality rate) against diamondback moth ([3]; 500 ppm)

COC(=O)N1C(=O)C(C(=O)Nc2ccc(F)cc2F)=C(O)CN1c1cncc(OC)c1C#N [3-508]
A (the mortality rate is 100%): insecticidal efficacy (corrected mortality rate) against small brown planthopper ([1]; 50 ppm) | insecticidal efficacy (corrected mortality rate) against small brown planthopper ([1]; 500 ppm) | insecticidal efficacy (corrected mortality rate) against western flower thrips ([2]; 50 ppm) | insecticidal efficacy (corrected mortality rate) against western flower thrips ([2]; 500 ppm) | insecticidal efficacy (corrected mortality rate) against diamondback moth ([3]; 500 ppm)

COCCOC(=O)N1C(=O)C(C(=O)Nc2ccc(F)cc2)=C(O)CN1c1ccc(Br)nc1 [3-320]
A (the mortality rate is 100%): insecticidal efficacy (corrected mortality rate) against small brown planthopper ([1]; 50 ppm) | insecticidal efficacy (corrected mortality rate) against small brown planthopper ([1]; 500 ppm) | insecticidal efficacy (corrected mortality rate) against western flower thrips ([2]; 50 ppm) | insecticidal efficacy (corrected mortality rate) against western flower thrips ([2]; 500 ppm) | insecticidal efficacy (corrected mortality rate) against diamondback moth ([3]; 50 ppm) | insecticidal efficacy (corrected mortality rate) against diamondback moth ([3]; 500 ppm)
